The values below come from patent US20200071424A1.

Test [1] addresses cynomolgus monkey EL (cynomolgus monkey). The test can be described thus: ELISA; Ab captured on anti-mouse IgG-Fc; EL heparin extract.
For test [2], the target named is rabbit EL (rabbit). Described as above.
The target of test [3] is baboon EL (baboon). The test is described as above.
Test [4] deals with baboon EL (baboon). The test can be described thus: hybridoma screening ELISA; baboon EL heparin extract. In general terms: ELISA stands for enzyme-linked immunosorbent assay.
The target of test [5] is cynomolgus monkey EL (cynomolgus monkey). Kind of test: ELISA: antibody captured on anti-mouse IgG-Fc plate, EL heparin extract added, detection with biotin anti-C2-tag antibody and HRP-streptavidin, A450.
Test [6] has as its target rabbit EL (rabbit). Described as above.
Test [7] addresses baboon EL (baboon). Described as above.
Test [8] deals with Chimeric EL [187-500] (mouse;human). The description is as above.

These are yes or no findings as the source states them, for the method shown. Binding calls can cover weak binding; strength is not graded here.

B1: 16B3 (antibody, mouse IgG2a, V domains shown)
VH: DVKLVESGGGLVQPGGSLKLSCTASGFTFSGYTMSWVRQTPEKRLELVAEISFARDRAFYPDTVKGRFTISRDNAKNTLYLQMSSLKSEDTAMYYCTRLGGRNHDYWYFDVWGTGTTVTVSS
VL: DIVLTQSPTSLAVSPGQRATISCRASESVEYYGTSLMQWYQQKPGQRPQLLIYAASNVESGVPARFSGSGSGTDFSLNIHPVEEDDIAVYFCQQSWKVPFTFGSGTKLEIK
On to B1, for which the binding result (in test [1]; in the test with rabbit EL (rabbit) [2]; in the test with baboon EL (baboon) [3]; in the test with baboon EL (baboon) [4]; in test [5]; with rabbit EL (rabbit) [6]) was “binds” each time. Also, the binding entry with baboon EL (baboon) [7] is on record as “binds”.

B2: 14A1 (antibody, mouse IgG1, V domains shown)
VH: QIQLVQSGPELKKPGETVKISCKASGYTFTNYGMNWVKQAPGKGLKWMGWINTYSGVPTYADDFKGRFAFSLETSASTAYLQINNFKNEDTATYFCARFSYYGRHYFDYWGQGTALTASS
VL: DIVLTQSPASLAVSLGQRATISCKASQSVDYDGDSYMNWYQQKPGQPPKLLIYAASNLKSGIPARFSGSGSGTDFTLNIHPVEEEDAATYYCQQTTDDPPWTFGGGTKLEIK
B2: the binding result was “binds” in test [1]; “no binding” with rabbit EL (rabbit) [2]; “binds” in the test with baboon EL (baboon) [3]; “binds” with baboon EL (baboon) [4]; “binds” in test [5]; “no binding (tested: about 330 ng/mL)” with rabbit EL (rabbit) [6]. Besides, in the test with baboon EL (baboon) [7], the binding result was “binds”.

B3: 55A1 (antibody, mouse IgG2a, V domains shown)
VH: QIHLVQSGPELKKPGETVKISCKASGYTFTNYGMNWVKQAPGKGLKWMGWINTYSGVPTYAGDFKGRFAFSLETSASTAYLQINNLKNEDTATYFCARRGYYGRRYFDVWGTGTTVTVSS
VL: DIVLTQSPASLAVSLGQRATISCKASQSVDYDVDSYMHWYQQKPGQPPKLLIYAASNLASGIPARFSGGGSGTDFTLNIHPVEEEDVATYYCQQTIEDPPTFGGGTKLEIK
Take B3: the binding entry is “binds” in test [1]; “no binding” in the test with rabbit EL (rabbit) [2]; “binds” in the test with baboon EL (baboon) [3]; “binds” with baboon EL (baboon) [4]; “binds” in test [5]; “no binding (tested: about 330 ng/mL)” with rabbit EL (rabbit) [6]. Moreover, the binding result with baboon EL (baboon) [7] was “binds”.

B4: 7D4 (antibody, mouse IgG1, V domains shown)
VH: QIQLVQSGPELKKPGETVKISCKASGYTFTNYGMNWVKQAPGKDLKWMGWINTYSGVPTYADDFKGRFAFSLETSASTAYLQINNLKNEDTATYFCARFSYYGRHYFDYWGQGTTLTVSS
VL: DIVLTQSPASLAVSLGQRATISCKASQSVDYDGDSYMNWYQQKPGQPPQLLIYAASNLGSGIPARFSGSGSGTDFTLNIHPVEEEDAATYYCHQSTDDPPWTFGGGTKLEIK
As to B4, the binding result in test [1] is “binds”; with rabbit EL (rabbit) [2] it was “no binding”; with baboon EL (baboon) [3], “binds”; with baboon EL (baboon) [4], “binds”; in test [5] it was “binds”; with rabbit EL (rabbit) [6], “no binding (tested: about 330 ng/mL)”. In addition, the binding entry with baboon EL (baboon) [7] is listed as “binds”.

B5: 13B3 (antibody, mouse IgG2a, V domains shown)
VH: EVQLQQSGPELLKPGASVKISCKASGYTFTEYTMHWVKQSHGKSLEWIGSINPYYGGTSYNEKFKDKATLTVDKSSNTAYMEFRSLTSEDCAVYYCARYGNYVGYFDYWGQGTTLTVSS
VL: ENVLTQSPAIMSASLGEKVTMSCRASSSVHYMYWYQQKSDASPKLWIYYTSNLAPGVPDRFSGSGSGNSYSLTISSMEGEDAATYYCQQFTSSPYTFGGGTKLEIK
With B5, the binding entry (in test [1]; with rabbit EL (rabbit) [2]; in the test with baboon EL (baboon) [3]; in the test with baboon EL (baboon) [4]; in test [5]; with rabbit EL (rabbit) [6]) was “binds” throughout. Also, the binding entry in the test with baboon EL (baboon) [7] is listed as “binds”.

B6: 19E7 (antibody, mouse IgG2a, V domains shown)
VH: QVQLQQPGSVLVRPGASVKLSCKASGYTFTTYWMHWVKQRPGQGLEWIGEIHPYSGNNNNNEKFKGKATLTVDTSSSTAYVDLSRLTSEDSAVYYCARYDSNYVFAYWGQGTLVTVSA
VL: QIVLTQSPAIMSASPGEGVTITCSASSSVSYMHWFQQKPGTSPKLWIYSTSNLASGVPARFSGSGSGTSYSLTISRMEAEDAATYYCQQRDSYLTFGSGTKLEVK
Turning to B6, the binding entry (in test [1]; in the test with rabbit EL (rabbit) [2]; in the test with baboon EL (baboon) [3]; with baboon EL (baboon) [4]; in test [5]; with rabbit EL (rabbit) [6]) was “binds” in each case. For the same molecule, the binding result with baboon EL (baboon) [7] is given as “binds”.

B7: 53A11 (antibody, mouse IgG2a, V domains shown)
VH: EVQLQQSGPELLKPGASVKISCKASGYTFTDYTMHWVKQSHGKSLEWIGGINPYYGGTTYNEKFKDKATLTVDKSSSTAYMELRSLTSEDSAVYYCAKGDYYGGSYNYWGQGTTLTVSS
VL: DIVLTQSLATLSVTPGDSVSLSCRASQDISNSLHWYQQKSHESPRLLIKYASQSISGIPSRFSGSGSGTDFTLSINSVETEDFGMYFCQQSNSWPYTFGGGTKLEIK
Turning to B7, the binding result was “binds” in test [1]; “no binding” with rabbit EL (rabbit) [2]; “binds” with baboon EL (baboon) [3]; “binds” with baboon EL (baboon) [4]; “binds” in test [5]; “no binding (tested: about 330 ng/mL)” in the test with rabbit EL (rabbit) [6]. Besides, the binding result in the test with baboon EL (baboon) [7] is “binds”.

B8: 16F6 (antibody, V domains shown)
VH: QVQLQQSGAELMKPGASVKISCKATGYTFSTYWIAWVKQRPGHGLEWIGEILPGSAKTKYNKKFKGKATFTADTSSNTAYMQLSSLTSEDSAVYYCAVYDYGADYWGQGTSVTVSS
VL: DIVMTQSHKFMSTSVGDRVSITCKASQDVYTAVAWYQQKPGQSPKLLIYSASYRFTGVPDRFTGSGAGTEFTFTINSVQAEDLAVYYCQQHYSIPRTFGGGTKLEIK
As to B8, the binding entry (in test [8]; in the test with baboon EL (baboon) [7]) was “binds” in each case.

B9: 23H8 (antibody, mouse IgG2a, V domains shown)
VH: EVQLQQSGPELLKPGASVKISCKASGYTFTDNTIHWVKQSHGKSLEWIGHINPYYGGTNNNEKFKDKATLTVDKSSSTAYMELRSLTSEDSAIYYCARKGIYYSSPFDYWGQGTTLTVSS
VL: DIQMTQTTSSLSASLGDRVTISCRASQDINNYLNWYQQKPDGTVKLLISYTSKLHSGVPSRFSGSGSGTDYSLTISNLEREDFATYFCQQGNTLPFTFGSGTNLEIK
Consider B9, for which the binding entry (in test [1]; in the test with rabbit EL (rabbit) [2]; with baboon EL (baboon) [3]; in the test with baboon EL (baboon) [4]; in test [5]; with rabbit EL (rabbit) [6]) was “binds” in each case. For the same molecule, the binding entry with baboon EL (baboon) [7] is on record as “binds”.

B10: 14E1 (antibody, mouse IgG1, V domains shown)
VH: QVQLQQSGAELVKPGASVRLSCKASGYTFTKYTIHWVKQRSGQGLEWIGWFYPGSDSIKYNEKFKDKATLTADKSSRTVYMELSRLTSEDSAVYFCARHEEYTNSLAYWGQGTLVTVSA
VL: DIQMTQTTSSLSASLGDRVTISCRASQDISNYLNWYQQQPDGTVKLLIYYTSRLHSGVPSRFSGSGSGTDYSLTISNLEQEDIATYFCQQGYTLPWTFGGGTNLEIK
As to B10, the binding entry (in test [1]; with rabbit EL (rabbit) [2]; in the test with baboon EL (baboon) [3]; with baboon EL (baboon) [4]; in test [5]; with rabbit EL (rabbit) [6]) was “binds” in each case. Further, the binding entry with baboon EL (baboon) [7] is “binds”.
